# Reference: PubChem BioAssay AID652243 (Drosophila RNAi Screening Center, 2013)
# Test: 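Fly genes required for human androgen receptor driven transcription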 (primary screen)
# System: Drosophila S2R+ cells
# Reagent: long dsRNA against Drosophila genes
# Timing: 72 h (48 h, then 24 h hormone)
# Conditions: synthetic androgen R1881 at 10 nM for 24 h
# Read-out: 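Per-well raw luminescence of the androgen-driven firefly reporter and of the Renilla control, two replicates each, without normalisation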
# Reading the numbers: firefly reporter light: higher = more light from androgen-responsive reporter; Renilla control light: higher = more constitutive control signal (cell number, transfection)
# Active means: 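Hit when the log firefly-to-Renilla ratio dropped or increased by a fixed fold versus the mean of GFP or LacZ controls across duplicate plates; lowering cut given as 1.5 and as 3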
# Meaning of the calls: active = hit: reporter lowered or raised; inactive = no hit
# In all, the deposit lists about 24,000 reagents; shown is an unselected part of those that have a named target and a result. Of all reagents, 246 (1%) were called active. 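Plates not normalised; calls are printed but the firefly/Renilla ratio behind them is not deposited; fold cut for lowering reported inconsistently.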 Raw values are not corrected between plates. The numbers tell different reagents against one gene apart. The record does not give: the amount of reagent.
gene,reagent,"firefly reporter light, replicate 1","firefly reporter light, replicate 2","Renilla control light, replicate 1","Renilla control light, replicate 2",Outcome
qtc,1,8.12e5,9.38e5,1.98e6,2.07e6,inactive
qtc,2,71814,62861,1.19e6,8.48e5,inactive
qtc,3,3.09e5,3.97e5,5.85e5,6.93e5,inactive
CG14445,1,1.99e5,3.03e5,2.04e6,2.63e6,inactive
CG14445,2,1.11e6,9.70e5,9.25e5,9.04e5,inactive
CG17364,1,1.60e5,1.21e5,1.82e6,9.91e5,inactive
CG17364,2,3.22e5,3.99e5,2.49e6,3.09e6,inactive
CG17364,3,7.99e5,6.99e5,1.12e6,1.07e6,inactive
CG17364,4,2.21e5,2.18e5,9.46e5,9.46e5,inactive
Camp,1,1.04e5,1.11e5,1.88e6,1.88e6,inactive
CG6154,1,1.97e5,1.99e5,2.93e6,2.76e6,inactive
CG6154,2,3.06e5,6.75e5,8.11e5,1.24e6,inactive
THADA,1,7.08e5,6.04e5,9.13e5,7.99e5,inactive
THADA,2,6.40e5,6.33e5,1.49e6,1.50e6,inactive
VGAT,1,68424,85971,1.65e6,1.65e6,inactive
CG4594,1,6.90e5,6.52e5,1.13e6,1.39e6,inactive
aph-1,1,6.38e5,7.50e5,2.74e6,1.79e6,inactive
CG32182,1,1.16e5,1.19e5,2.33e5,2.45e5,inactive
CG32182,2,9.42e5,1.51e6,5.79e5,9.14e5,inactive
Not1,1,2.85e5,2.21e5,1.87e6,1.66e6,inactive
Not1,2,9.82e5,8.05e5,1.17e6,1.22e6,inactive
CG13358,1,1.92e5,2.62e5,3.00e6,2.86e6,inactive
CG13358,2,1.03e6,1.07e6,9.41e5,1.12e6,inactive
Tim17a1,1,2.23e5,2.51e5,2.89e6,2.96e6,inactive
Peritrophin-A,1,1.18e5,86041,7.17e5,9.02e5,inactive
DptA,1,1.65e5,1.63e5,2.55e6,2.21e6,inactive
CG32263,1,4.39e5,5.49e5,1.45e6,2.04e6,inactive
CG32263,2,4.32e5,4.81e5,1.33e6,1.15e6,inactive
CG13506,1,2.42e5,2.19e5,1.85e6,1.76e6,inactive
a6,1,54823,39851,8.27e5,5.22e5,inactive
CG16953,1,1.42e5,1.32e5,6.82e5,7.71e5,inactive
EMC5,1,2.41e5,1.82e5,2.06e6,2.44e6,inactive
CG30389,1,1.22e6,9.35e5,2.82e6,2.50e6,inactive
CG30389,2,1.89e5,2.77e5,1.71e6,1.80e6,inactive
CG30389,3,1.40e5,3.93e5,1.02e5,5.24e5,inactive
Rh6,1,96022,1.26e5,1.82e6,1.40e6,inactive
Rh6,2,3.13e5,1.95e5,8.13e5,4.87e5,inactive
sals,1,89360,1.08e5,4.40e5,4.46e5,inactive
sals,2,1.16e5,1.50e5,1.79e6,1.89e6,inactive
sals,3,3.55e5,1.01e6,7.05e5,1.47e6,inactive

4 of these entries, set out differently.
gene	reagent	firefly reporter light, replicate 1	firefly reporter light, replicate 2	Renilla control light, replicate 1	Renilla control light, replicate 2	Outcome
Not1	2	9.82e5	8.05e5	1.17e6	1.22e6	inactive
CG13358	1	1.92e5	2.62e5	3.00e6	2.86e6	inactive
CG13358	2	1.03e6	1.07e6	9.41e5	1.12e6	inactive
Tim17a1	1	2.23e5	2.51e5	2.89e6	2.96e6	inactive
